In PubChem BioAssay AID330 (DTP/NCI, 2004) one finds T/C and survivor count data, which are given here for 19 compounds.

The experiment concerns P388 leukemia ip, CD2F1 mice, survival T/C. Kind of experiment: NCI In Vivo Anticancer Drug Screen. Data for tumor model P388 Leukemia (intraperitoneal) in CD2F1 (CDF1) mice. Conditions: T/C endpoint: median survival time, higher T/C = longer survival.
[1] abbreviates: dose: 240.0 mg/kg/injection, schedule: Q01DX005 (ip), vehicle: Klucel (hydroxypropylcellulose) (HPC).
[2] abbreviates: dose: 50.0 mg/kg/injection, schedule: Q01DX009 (ip), vehicle: saline with Tween-80.
The mark [3] stands for this setting: dose: 200.0 mg/kg/injection, schedule: Q01DX009 (ip), vehicle: saline with Tween-80.
The mark [4] stands for this setting: dose: 100.0 mg/kg/injection, schedule: Q01DX005 (ip), vehicle: saline with Tween-80.
Where [5] appears, read: dose: 200.0 mg/kg/injection, schedule: Q01DX005 (ip), vehicle: saline with Tween-80.
The mark [6] stands for this setting: dose: 25.0 mg/kg/injection, schedule: Q01DX005 (ip), vehicle: Klucel (hydroxypropylcellulose) (HPC).
Setting [7] is: dose: 50.0 mg/kg/injection, schedule: Q01DX005 (ip), vehicle: Klucel (hydroxypropylcellulose) (HPC).
Setting [8] is: dose: 100.0 mg/kg/injection, schedule: Q01DX005 (ip), vehicle: Klucel (hydroxypropylcellulose) (HPC).
[9] abbreviates: dose: 200.0 mg/kg/injection, schedule: Q01DX005 (ip), vehicle: Klucel (hydroxypropylcellulose) (HPC).

The list does not hold the whole screen: it gathers tests that were run many times, whatever their T/C, doses with no T/C, and many T/C values between a quarter and a half above the control. Further doses and runs are listed elsewhere. T/C is the treated group as % of the vehicle group. Some entries give survivors of the animals treated and no T/C: the source files T/C as zero there, which appears to mark a toxic dose or a test without result, not a measured value. Some doses without a T/C left all or most animals alive at the check, yet need not have been tolerated: the source hardly ever lists a survival T/C far under the control, and the zero likely stands for such cases as well. Counts of survivors are from the toxicity check (mostly the fifth day) where no day follows; animals may have died later. Schedules are NCI's codes, taken here to give the interval after Q, in days (D) or hours (H), and the number of doses after X. Some entries were tested several times; their values stand side by side, smallest first. For survival time, the PubChem record calls one and a half times the control and up active, and a quarter to a half above the control has no call in these data; cut-offs in other NCI protocols can differ. Counts like (3×) stand for listed records that agree. Some T/C values are followed by the survivors on the day toxicity was checked, most often the fifth; where none is given, no animal had died by that day.

`CC(=O)/C(=C\c1ccc([N+](=O)[O-])o1)C(=O)CCN(C)C`: the T/C by setting is: (dose: 30.0 mg/kg/injection, schedule: Q01DX005 (ip), vehicle: Klucel (hydroxypropylcellulose) (HPC), evaluated on day 20) 125 % of control; (dose: 30.0 mg/kg/injection, schedule: Q01DX005 (ip), vehicle: Klucel (hydroxypropylcellulose) (HPC), evaluated on day 21) 125 % of control. The survivor count is, setting by setting: (dose: 60.0 mg/kg/injection, schedule: Q01DX005 (ip), vehicle: Klucel (hydroxypropylcellulose) (HPC)) 0 of 6 and 3 of 6; (dose: 120.0 mg/kg/injection, schedule: Q01DX005 (ip), vehicle: Klucel (hydroxypropylcellulose) (HPC)) 0 of 6; under setting [1], 0 of 6.

Take `Oc1ccccc1N=Cc1cccs1`: for the setting “dose: 400.0 mg/kg/injection, schedule: Q01DX009 (ip), vehicle: Klucel (hydroxypropylcellulose) (HPC)”, the T/C is 127 % of control [5 of 6 alive].

On to `OC1(c2cccc(Cl)c2)C2=NCCCN2c2ccccc21` (centres undefined), for which the survivor count (dose: 25.0 mg/kg/injection, schedule: Q01DX009 (ip), vehicle: saline with Tween-80) is 5 of 6; the survivor count under setting [2] is 0 of 6 and 3 of 6; the survivor count (dose: 100.0 mg/kg/injection, schedule: Q01DX009 (ip), vehicle: saline with Tween-80) is given as 0 of 6; the survivor count under setting [3] was 0 of 6.

As for `Nc1nc(N)c(CCCOc2ccc(C(=O)O)cc2)c(N)n1`, the survivor count under setting [1] is 3 of 6.

As for `CCC(O)c1ccco1` (centres undefined), the survivor count is, setting by setting: under setting [4], 1 of 6; under setting [5], 0 of 6.

Consider `O=P(Oc1ccccc1)(Oc1ccccc1)C(O)C(Cl)(Cl)Cl` (centres undefined), for which the survivor count is 6 of 6 under setting [2] and 0 of 6 under setting [3].

As for `O=C(Nc1ccccc1)c1c(O)[nH]c(=S)[nH]c1=O`, the T/C (dose: 20.0 mg/kg/injection, schedule: Q01DX009 (ip), vehicle: saline with Tween-80) is 132 and 134 % of control; the T/C (dose: 25.0 mg/kg/injection, schedule: Q01DX005 (ip), vehicle: saline with Tween-80) is 128 and 138 % of control; the T/C (dose: 30.0 mg/kg/injection, schedule: Q01DX009 (ip), vehicle: saline with Tween-80, evaluated on day 45) is 145 and 153 % of control; the T/C (dose: 30.0 mg/kg/injection, schedule: Q01DX009 (ip), vehicle: saline with Tween-80, evaluated on day 60) was 153 and 158 % of control; the T/C (dose: 44.0 mg/kg/injection, schedule: Q01DX009 (ip), vehicle: saline with Tween-80, evaluated on day 45) is 161 and 164 % of control; the T/C (dose: 44.0 mg/kg/injection, schedule: Q01DX009 (ip), vehicle: saline with Tween-80, evaluated on day 60) was 166 (2×) and 192 % of control. Besides, the T/C reads like this: (dose: 50.0 mg/kg/injection, schedule: Q01DX005 (ip), vehicle: saline with Tween-80) 142 % of control; (dose: 67.0 mg/kg/injection, schedule: Q01DX009 (ip), vehicle: saline with Tween-80, evaluated on day 45) 177 and 191 % of control; (dose: 67.0 mg/kg/injection, schedule: Q01DX009 (ip), vehicle: saline with Tween-80, evaluated on day 60) 185, 194, 195, 197, 204 % of control; (dose: 100.0 mg/kg/injection, schedule: Q01DX009 (ip), vehicle: saline with Tween-80, evaluated on day 45) 219, 235, 245 % of control; (dose: 100.0 mg/kg/injection, schedule: Q01DX009 (ip), vehicle: saline with Tween-80, evaluated on day 60) 209, 211 (2×), 215, 226, 242, 358 % of control; (dose: 125.0 mg/kg/injection, schedule: Q01DX009 (ip), vehicle: saline with Tween-80, evaluated on day 45) 288 % of control. For the same compound, the T/C is 221 [9 of 10 alive], 225, 303, 316, 600 % of control (dose: 125.0 mg/kg/injection, schedule: Q01DX009 (ip), vehicle: saline with Tween-80, evaluated on day 60); 374 % of control (dose: 150.0 mg/kg/injection, schedule: Q01DX009 (ip), vehicle: saline with Tween-80, evaluated on day 45); 224, 233, 255, 277, 356, 600 % of control (dose: 150.0 mg/kg/injection, schedule: Q01DX009 (ip), vehicle: saline with Tween-80, evaluated on day 60). In addition, the survivor count is 4 of 6 under setting [4]; 6 of 10 (dose: 175.0 mg/kg/injection, schedule: Q01DX009 (ip), vehicle: saline with Tween-80); 0 of 6 under setting [5].

As to `OC1C(O)C(O)C(O)C(O)C1O.[Cu+2].[Cu]` (centres undefined), the survivor count reads like this: under setting [6], 0 of 6; under setting [7], 0 of 6; under setting [8], 0 of 6; under setting [9], 0 of 6.

`CCOP(=O)(OCC)C(N)Cc1c[nH]c2ccccc12` (centres undefined): the survivor count (dose: 200.0 mg/kg/injection, schedule: Q01DX005 (ip), vehicle: saline) was 0 of 6.

Consider `Cc1cccn2ccnc12`, for which the T/C (dose: 50.0 mg/kg/injection, schedule: Q01DX009 (ip), vehicle: saline) is 125 % of control. The survivor count runs as follows: (dose: 100.0 mg/kg/injection, schedule: Q01DX009 (ip), vehicle: saline) 4 of 6; (dose: 200.0 mg/kg/injection, schedule: Q01DX009 (ip), vehicle: saline) 0 of 6.

In the case of `CCOP(=O)(O)SP(=O)(O)OCC.CCOP(=O)(O)SP(=O)(O)OCC.[Mn]`, the survivor count is, setting by setting: (dose: 200.0 mg/kg/injection, schedule: Q04DX002 (ip), vehicle: saline) 0 of 6; (dose: 400.0 mg/kg/injection, schedule: Q04DX002 (ip), vehicle: saline) 0 of 6.

As for `CC(=O)[O][Bi]([c]1ccccc1)[c]1ccccc1`, the T/C (dose: 6.25 mg/kg/injection, schedule: Q01DX005 (ip), vehicle: Klucel (hydroxypropylcellulose) (HPC)) is 126 % of control. Moreover, the survivor count is 1 of 6 (dose: 12.5 mg/kg/injection, schedule: Q01DX005 (ip), vehicle: Klucel (hydroxypropylcellulose) (HPC)); 0 of 6 and 3 of 6 under setting [6]; 0 of 6 under setting [8]; 0 of 6 under setting [9].

Consider `O=C1c2cccc3c([N+](=O)[O-])ccc(c23)C(=O)N1CCCN1CCOCC1`, for which the survivor count under setting [5] is reported as 4 of 6.

For the compound `O=C1ON=C(COc2ccccc2)/C1=C\c1ccc(Cl)cc1`, the survivor count is listed as 3 of 6 (dose: 120.0 mg/kg/injection, schedule: Q01DX005 (ip), vehicle: saline with Tween-80) and 0 of 6 (dose: 240.0 mg/kg/injection, schedule: Q01DX005 (ip), vehicle: saline with Tween-80).

`O=C(NC(=O)C(F)(F)F)Nc1ccc(Cl)cc1`: under setting [3], the survivor count is on record as 5 of 6.

On to `CC(C)(C)NCC(CN1CCOCC1)C(=O)c1ccccc1` (centres undefined), for which the survivor count reads like this: under setting [6], 3 of 6; under setting [7], 1 of 6; under setting [8], 0 of 6; under setting [9], 0 of 6.

Turning to `NS(=O)(=O)c1ccc(C(=O)O)s1`, under setting [5], the survivor count is reported as 6 of 6.

Regarding `C[C@H](N)C(=O)N[C@@H]1[C@H]2C(=C(O)C[C@@H](O)[C@@H]2O)C(=O)O[C@]1(C)C(Cl)Cl`, the T/C (dose: 0.39 mg/kg/injection, schedule: Q01DX009 (ip), vehicle: Klucel (hydroxypropylcellulose) (HPC)) was 126 % of control. The survivor count (dose: 6.25 mg/kg/injection, schedule: Q01DX009 (ip), vehicle: Klucel (hydroxypropylcellulose) (HPC)) was 1 of 6, 2 of 6, 6 of 6; the survivor count (dose: 12.5 mg/kg/injection, schedule: Q01DX009 (ip), vehicle: Klucel (hydroxypropylcellulose) (HPC)) is listed as 1 of 6; the survivor count (dose: 25.0 mg/kg/injection, schedule: Q01DX009 (ip), vehicle: Klucel (hydroxypropylcellulose) (HPC)) is 0 of 6; the survivor count (dose: 50.0 mg/kg/injection, schedule: Q01DX009 (ip), vehicle: Klucel (hydroxypropylcellulose) (HPC)) is 0 of 6; the survivor count (dose: 100.0 mg/kg/injection, schedule: Q01DX009 (ip), vehicle: Klucel (hydroxypropylcellulose) (HPC)) is listed as 0 of 6.

In the case of `CC(=O)OCC1OC(n2cc(CI)nn2)C(OC(C)=O)C(OC(C)=O)C1OC(C)=O` (centres undefined), the survivor count (dose: 100.0 mg/kg/injection, schedule: Q01DX009 (ip), vehicle: distilled water + Tween-80) is listed as 3 of 6.
